# Data taken from US20260209222A1, “CBL-B MODULATORS AND USES THEREOF” (Nimbus Clio, Inc., priority 2022, published 2026).
# Protein sequences, listed by entry. Tags and fused reporters are not part of them. Residues count along the entry.
# UniProt Q13191, 36-427 limits assumed: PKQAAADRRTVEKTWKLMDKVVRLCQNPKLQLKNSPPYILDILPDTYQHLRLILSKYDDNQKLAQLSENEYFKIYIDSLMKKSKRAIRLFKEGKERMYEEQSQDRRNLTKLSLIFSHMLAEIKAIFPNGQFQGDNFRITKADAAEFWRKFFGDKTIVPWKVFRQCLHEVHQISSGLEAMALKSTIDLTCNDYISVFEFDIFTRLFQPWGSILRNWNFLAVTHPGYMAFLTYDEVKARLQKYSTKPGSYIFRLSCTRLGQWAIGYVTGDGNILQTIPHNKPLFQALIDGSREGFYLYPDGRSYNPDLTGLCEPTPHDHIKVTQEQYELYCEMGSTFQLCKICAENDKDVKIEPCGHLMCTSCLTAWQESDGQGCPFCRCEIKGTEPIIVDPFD
# Tests used:
# [1] = test system: Recombinant human c-Cbl (aa 47-435); test: c-Cbl Biochemical Assay (TR-FRET); conditions: ratio from the Cbl-b and c-Cbl TR-FRET biochemical assays
# Description: c-Cbl Biochemical Assay (TR-FRET)
# Recombinant human c-Cbl (aa 47-435) was expressed in E coli, purified and biotinylated in vitro. The protein was diluted to 12 nM in freshly prepared assay buffer consisting of 50 mM HEPES, pH 7.0, 100 mM NaCl, 5 mM MgCl2, 0.01% Triton-X 100, 0.01% BSA and 1 mM DTT. Recombinant human Src (aa 254-536)-GSSGSS-Zap-70 (aa 281-297) fusion protein was expressed in E coli and purified. Protein was diluted in assay buffer to 5-20 nM and ATP was added to 1 mM. Recombinant human UBE2D2(C85K) was expressed in E coli, purified and ubiquitinated and Bodipy labelled in vitro. Protein was diluted to 200 nM in assay buffer without MgCl2 (or Cisbio PPI buffer). Streptavidin-Terbium was added to 2 nM and EDTA to 10 mM, to provide a binding assay mix. Compounds were dissolved in DMSO and diluted to prepare a ten-point half log dilution series. 100 nl of each compound concentration was dispensed in duplicate in a 384 well black assay plate using acoustic dispensing. […] The enzyme reaction was terminated and the binding reaction was initiated by adding 10p of binding assay mix to all wells and incubating the plate at RT for 60 min prior to assay read. […] The HTRF assay signal was measured at 520 nm on an Envision plate reader, with reference signal at 485 or 620 nm. […]
# [2] = target: Recombinant human Cbl-b (aa 36-427) (Homo sapiens, UniProt Q13191); test: Cbl-b Biochemical Assay (TR-FRET); conditions: read-out: TR-FRET Cbl-b IC50; 6 nM Cbl-b, 1-2.5 nM Src-Zap70, 0.5 mM ATP; HTRF signal at 520 nm
# Description: Cbl-b Biochemical Assay (TR-FRET)
# Recombinant human Cbl-b (aa 36-427) was expressed in E coli, purified and biotinylated in vitro. The protein was diluted to 12 nM in freshly prepared assay buffer consisting of 50 mM HEPES, pH 7.0, 100 mM NaCl, 5 mM MgCl2, 0.01% Triton-X 100, 0.01% BSA and 1 mM DTT. Recombinant human Src (aa 254-536)-GSSGSS-Zap-70 (aa 281-297) fusion protein was expressed in E coli and purified. Protein was diluted in assay buffer to 2-5 nM and supplemented with ATP to 1 mM. Fluorescein-BODIPY labeled UBED2D(C85K)-Ub was prepared by conjugating ubiquitin (Ub) labeled at its N-terminus with Fluorescein-BODIPY maleimide (ThermoFisher Catalog no B10250) to E coli expressed and purified UBED2D(C85K) [see Dou et al Nature Structural and Molecular Biology 8: 982-987, 2013]. Recombinant human UBE2D2(C85K) was expressed in E coli, purified and ubiquitinated and Bodipy labelled in vitro. Protein was diluted to 200 nM in assay buffer without MgCl2 (or Cisbio PPI buffer). Streptavidin-Terbium was added to 2 nM and EDTA to 10 mM, to provide a binding assay mix. […] The enzyme reaction was terminated and the binding reaction was initiated by adding 10p of binding assay mix to all wells and incubating the plate at RT for 60 min prior to assay read. […] The HTRF assay signal was measured at 520 nm on an Envision plate reader, with reference signal at 485 or 620 nm. […]
structure (smiles),measurement,setting,value
CN(C)C(=O)CNCc1cc(C(F)(F)F)c2oc(-c3cccc([C@]4(c5nncn5C)C[C@@H](C)C4)c3)nc2c1,Cbl-b/c-Cbl Selectivity,[1],9
same,IC50,[2],200 to 5000 nM

# The structures given here were assigned with low confidence; some may be wrong.
